The source of these data is the supplement of paper PMC4604168 (melanoma cell lines).

Some of the results follow. Repeats are few or missing, and single values can be far off.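 Imaging used 1,536-well plates; nuclei positive for cleaved PARP by antibody were divided by total DNA-stained nuclei to yield the apoptosis fraction. Doses for screening kept most cells viable, and cell lines differ markedly in resting and induced cleaved-PARP levels.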

This assay concerns CBRC014 (line from a melanoma biopsy). Description: cleaved PARP positive nuclei fraction relative to DMSO control; melanoma cells; higher = more apoptosis. The conditions noted are these: library dose: low library concentration; 72 h.
As for `CO[C@H]1C[C@@H]2CC[C@@H](C)[C@@](O)(O2)C(=O)C(=O)N2CCCC[C@H]2C(=O)O[C@H]([C@H](C)C[C@@H]2CC[C@@H](OCCO)[C@H](OC)C2)CC(=O)[C@H](C)/C=C(\C)[C@@H](O)[C@@H](OC)C(=O)[C@H](C)C[C@H](C)/C=C/C=C/C=C/1C` [everolimus] + Clc1ccc(Nc2nnc(Cc3ccncc3)c3ccccc23)cc1 [vatalanib] (first compound 0.02 µM, partner dose 2 µM), the “cleaved PARP positive nuclei fraction” value was determined as 144%.

Turning to `CO[C@H]1C[C@@H]2CC[C@@H](C)[C@@](O)(O2)C(=O)C(=O)N2CCCC[C@H]2C(=O)O[C@H]([C@H](C)C[C@@H]2CC[C@@H](OCCO)[C@H](OC)C2)CC(=O)[C@H](C)/C=C(\C)[C@@H](O)[C@@H](OC)C(=O)[C@H](C)C[C@H](C)/C=C/C=C/C=C/1C` [everolimus] + C#Cc1cccc(Nc2ncnc3cc(OCCOC)c(OCCOC)cc23)c1 [erlotinib] (first compound 0.02 µM, partner dose 0.8 µM), the “cleaved PARP positive nuclei fraction” value was found to be 106%.

For the compound `CS(=O)(=O)CCNCc1ccc(-c2ccc3ncnc(Nc4ccc(OCc5cccc(F)c5)c(Cl)c4)c3c2)o1` [lapatinib] + OCc1c[nH]c2ccccc12 [Indole-3-carbinol] (first compound 0.8 µM, partner dose 0.8 µM), the “cleaved PARP positive nuclei fraction” value was 94.4%.

Turning to `C[C@@H](Oc1cc(-c2cnn(C3CCNCC3)c2)cnc1N)c1c(Cl)ccc(F)c1Cl` [Crizotinib] + Nc1ccn([C@@H]2O[C@H](CO)[C@@H](O)C2(F)F)c(=O)n1 [gemcitabine] (first compound 0.2 µM, partner dose 0.0004 µM), the “cleaved PARP positive nuclei fraction” value was found to be 94.3%.

For the compound `O=C(O)[C@@H]1[O][Sb](=[O])([O][Sb]2(=[O])[O][C@H]([C@H](O)CO)[C@H](O)[C@H](C(=O)O)[O]2)[O][C@H]([C@H](O)CO)[C@@H]1O` (stereo partly drawn) [stibogluconate] + COc1ccc(Cl)c(Nc2nc3ccccc3nc2NS(=O)(=O)c2cccc(NC(=O)C(C)(C)N)c2)c1 [XL147] (first compound 2 µM, partner dose 0.8 µM), the “cleaved PARP positive nuclei fraction” value came to 104%.

Take `Cc1cc(Nc2cc(N3CCN(C)CC3)nc(/C=C/c3ccccc3)n2)n[nH]1` + C#Cc1cccc(Nc2ncnc3cc(OCCOC)c(OCCOC)cc23)c1 [erlotinib] (first compound 0.04 µM, partner dose 0.8 µM): the “cleaved PARP positive nuclei fraction” value was 91.5%.

`Nc1ccn([C@@H]2O[C@H](CO)[C@@H](O)C2(F)F)c(=O)n1` [gemcitabine] + COc1ccc(Cl)c(Nc2nc3ccccc3nc2NS(=O)(=O)c2cccc(NC(=O)C(C)(C)N)c2)c1 [XL147] (first compound 0.0004 µM, partner dose 0.8 µM): the “cleaved PARP positive nuclei fraction” value came out at 143%.

Regarding `Cc1cc(Nc2cc(N3CCN(C)CC3)nc(/C=C/c3ccccc3)n2)n[nH]1` + CNC(=O)c1cc(Oc2ccc(NC(=O)Nc3ccc(Cl)c(C(F)(F)F)c3)cc2)ccn1 [sorafenib] (first compound 0.04 µM, partner dose 0.4 µM), the “cleaved PARP positive nuclei fraction” value was 103%.

Take `O=C(O)c1ccc2c(c1)nc(Nc1cccc(Cl)c1)c1ccncc12` + Nc1nc(F)nc2c1ncn2[C@@H]1O[C@H](CO)[C@@H](O)[C@@H]1O [fludarabine] (first compound 0.4 µM, partner dose 0.2 µM): the “cleaved PARP positive nuclei fraction” value was determined as 125%.

Turning to `O=C(O)c1ccc2c(c1)nc(Nc1cccc(Cl)c1)c1ccncc12` + Nc1cccc2c1CN(C1CCC(=O)NC1=O)C2=O [lenalidomide] (first compound 0.4 µM, partner dose 1 µM), the “cleaved PARP positive nuclei fraction” value amounted to 143%.

`Nc1ncn([C@H]2C[C@H](O)[C@@H](CO)O2)c(=O)n1` [decitabine] + OCc1c[nH]c2ccccc12 [Indole-3-carbinol] (first compound 0.1 µM, partner dose 0.8 µM): the “cleaved PARP positive nuclei fraction” value is 102%.

With `CC(C)C[C@H](NC(=O)[C@H](Cc1ccccc1)NC(=O)c1cnccn1)B(O)O` [Bortezomib] + Cn1c(Nc2ccc(C(F)(F)F)cc2)nc2cc(Oc3ccnc(-c4ncc(C(F)(F)F)[nH]4)c3)ccc21 [CHIR265] (first compound 0.001 µM, partner dose 0.08 µM), the “cleaved PARP positive nuclei fraction” value was found to be 505%.

With `Cn1c(=O)n(-c2ccc(C(C)(C)C#N)cc2)c2c3cc(-c4cnc5ccccc5c4)ccc3ncc21` + C[C@]1(c2nc3c(C(N)=O)cccc3[nH]2)CCCN1 [Veliparib] (first compound 0.004 µM, partner dose 1.4 µM), the “cleaved PARP positive nuclei fraction” value was determined as 92%.
